Results from PubChem BioAssay AID1347426 (Functional Genomics Laboratory (NCATS/FGL), 2020).
Screen size: about 31,000 sequences; about 1,400 (4.5%) were called active.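 The calls were made as follows: active = median seed-adjusted z-score above 1 or below -1; inactive = the rest.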 This is one part of the list.

test: Novel Modifiers of Survival Motor Neuron (SMN) Protein: Gene Identification via Genome-wide siRNA Screen; details: HEK293T SMN2-luciferase reporter, siRNA knockdown, 72 h; actives lie on both sides;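 also: luminescence tracks full-length SMN protein made from the SMN2 reporter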
How it was run: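 HEK293T cells stably carrying an SMN2 promoter/splicing cassette–luciferase reporter were reverse-transfected with 1 pmol siRNA per well (druggable-genome library, 3 siRNAs per gene) and grown 72 h at 37 °C. Luminescence, normalized to negative-control siRNA and log10-transformed, was scored as MAD.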

Sequence | median seed-adjusted z-score
CGGUGAUCAUGGUUGCUCATT against TOMM40L | inactive: 0.12
GGAUGAGAAUAAUACUCGATT against SCG2 | inactive: 0.155
GCUCAUCUACUACUAUUUATT against ALG11 | inactive: 0.183
GCUGAGGCCUUGUACCAGATT against KRT78 | inactive: 0.306
GACUCUCUGAGGUAGAAAATT against EPN3 | inactive: 0.184
GGAGAGUUCGAAUUGCUCUTT against GSTZ1 | inactive: -0.144
GCUAAGUUGCAUUCCGAAATT against EEA1 | inactive: 0.0278
UCUGAUUACUUAUACUUCATT against ZNF366 | inactive: 0.585
GUAUGGGCGACUAACCAGATT against ENTPD4 | inactive: 0.324
CUCUAUCCCUGAGUACUUATT against PDXP | inactive: -0.302
CAGACUUUCUUAAGGCUAATT against ACVR2A | inactive: -0.22
CAGUGUAUCUUCAUAAGAUTT against TAF1L | inactive: 0.289
UGAUGUCCGUAGGCCUUAATT against KRT13 | inactive: 0.101
CAUUUUGCCUAGAUAAAGATT against PGRMC2 | inactive: -0.223
GGUUCUUGUGGUUUACCCATT against IL17RB | inactive: -0.464
CAAGAAACAUCAAAGCGAUTT against TADA2L | inactive: 0.0455
CUUAGACUGUUUCCACUUATT against PARK2 | inactive: 0.146
CAGAAACGAUCUACAAGAATT against MEPCE | inactive: -0.35
GUGUUGCACAGAUGCGUGATT against AIP | inactive: 0.529
ACAUAAUAGCCAAACUAGATT against ZNF174 | inactive: 0.035
GCAAACCUGUGACUUCCAATT against SYT10 | inactive: 0
GCAUCAUGCUUCCCGAGAATT against LPAR2 | inactive: 0.171

Sequence | median seed-adjusted z-score
GACUAUUACCUGUACGGGATT against XYLT1 | inactive: -0.274
CAGGUAUUCUGGUCAAUAUTT against ATL3 | inactive: 0.201
GGAUGAACUUGUCUAUGCATT against ESRRG | inactive: -0.681
CCUUUACCCUAUCUUCACATT against ZNF708 | inactive: 0.0562
UAAGUGUUGUGAGAAAUGATT against SLC25A2 | inactive: 0.586
GGGUGUUUCUCUAUGAGAATT against P2RX1 | inactive: 0.908
AUGGUUACCUGUUCACCUATT against SLC7A10 | inactive: -0.732
GGAACAUUUUUGACGGAUUTT against SCN8A | inactive: 0
ACCUCAAAAAGGUUACUAUTT against CHN2 | inactive: -0.478
GGAUAGGACUGGUGGAACATT against PLA1A | inactive: 0.197
ACUUGGAUCAUUUCCCUGATT against SLC13A5 | inactive: 0
CAGAUGACAUCAAAAUGGATT against STX1B | inactive: 0.229
CAAUAUCUCUCGGAUCUAUTT against AMBP | inactive: -0.679
GGAUCUACAUGGGCUUCAATT against AVPR1B | inactive: -0.423
GCAACUUCCUAGAACUGUUTT against PCYT1B | inactive: 0.177
GGAGUGCAAAAGGAACGAATT against APIP | inactive: -0.0945
CUGAAUAUGUGCAUCGAUATT against GLS | inactive: 0
CGGCAGAACACGUCUCAGATT against TACSTD2 | inactive: -0.681
GCAGGUCAAAUUUCCAUAATT against ZNF175 | inactive: -0.0194
GAACUGCAUUGAACUAAAUTT against CD3G | inactive: -0.0274
GCUGAGGAGUUUCUGCGGATT against PARP10 | inactive: -0.454
ACGACCACGUGAGAGCCAATT against HAGHL | inactive: -0.334

Sequence | median seed-adjusted z-score
GGUUGUUCCUCACCCGAUATT against EGF | inactive: 0.00831
GAACAGGGACUGUUAGGAATT against SPRY1 | inactive: 0.642
GAACCAUUAUCAAUAAGCUTT against TRAIP | inactive: -0.018
UGGUCCGACUGGUACGACATT against TAC1 | inactive: 0.0499
GAAUUUGCCCUAGACUUAATT against OGFOD1 | inactive: 0.442
UGUCUGCUAUGAUCUCUUUTT against ZFPL1 | inactive: -0.072
GGCUCGCAAUUUUGAGAGATT against THEM2 | inactive: 0.449
CGGAAGAACUGGACCAUCATT against CDH4 | inactive: 0
GGGAGAGUGGUGAACGUAUTT against CBR1 | inactive: -0.6
GGUGUUGUCUUGAGGUACATT against ADAMTS1 | inactive: 0.173
CGUCUAUGCCUAUAAAAUATT against ADORA3 | inactive: 0
GCCCUGAAGAUAUCGUGAATT against PARVG | inactive: 0.321
CUGGAACAGUGUACCCAAATT against CD2AP | inactive: 0.113
CAUGGAAAAUGAUGACGAATT against PPP4R2 | inactive: 0.211
GCUCCUGGAGUUAAGCUUATT against SPINK2 | inactive: -0.431
GAAUGCGUCCAGAAAUAAATT against NDUFA11 | inactive: -0.722
GGGUGACUCCAGAUCAGCUTT against SLC26A10 | inactive: -0.169
CGAGAAAUGUUUAUGAAGATT against NDUFA6 | inactive: -0.457
GCAUCAGUGGAGUACAUCATT against TFEC | inactive: -0.0734
GGACAAUCCUUUCAUUAAUTT against HTR3C | inactive: -0.221
GCCGAGUCUCAAUAUCUGUTT against FOSB | inactive: 0.266
GGGUCAUCCUGUUGCCAAUTT against KRTAP5-1 | inactive: 0

Sequence | median seed-adjusted z-score
CAAUCUCCCUGGAGUUGAATT against TRIM68 | inactive: -0.628
GGUUUCUAGGUAAUAGUAATT against ORC1L | inactive: -0.536
GCACUUAAUAAGAAUGAAUTT against GPX5 | inactive: 0.0205
CCAGUCAUCUGGUUUGUUUTT against RABL2B | inactive: 0.454
CCCUCUACGUGCACAUGUUTT against MC3R | inactive: 0.424
GCCUAUCAAUUGUUCGGGATT against TTF1 | active: 1.76
CAUGAACUCUGGAAACAGUTT against POP4 | inactive: -0.144
CCUUGGAACCUUUGAAAAATT against ANP32B | inactive: 0
AAAAGAUAAUUAUCCAUGATT against LILRA3 | inactive: -0.548
UUAUCACAGAGCAACCUAATT against NUBPL | inactive: 0.105
CAACUUCACUCAGAACCCATT against MARCO | inactive: 0.137
GCAAAGACCUUACGAGAAUTT against RIPK1 | inactive: -0.0157
CCAUCUCCUCUGAAACGUATT against RREB1 | inactive: -0.414
GUAAUUACCCAGAUCCUAUTT against PIK3CA | inactive: 0.0823
GAUUGAUCCUCAUGCUCCATT against LANCL1 | inactive: 0
CCAAGAUGCUAUUCGUUGATT against SERPING1 | inactive: -0.244
CGAUGUGCCUAAUCCAGUUTT against CYP51A1 | inactive: -0.242
CCUGGGUGAUCGUCAGGUATT against GIPR | inactive: 0.475
CACUCUUUACCUUCGCUUUTT against SHOC2 | inactive: -0.403
GCAUGAAUCUAUUGGACCATT against TFAP2B | inactive: 0
GCAUCGUGGUGUCAAGUCATT against ZBTB12 | inactive: 0.0993
CAAAGAUCGUAUCUGUAGATT against SDPR | inactive: -0.0738

Single entries from the entries so far:
CGAUGUGCCUAAUCCAGUUTT against CYP51A1 | median seed-adjusted z-score: inactive: -0.242
GCCUAUCAAUUGUUCGGGATT against TTF1 | median seed-adjusted z-score: active: 1.76

Part of the list above, set out differently.

| Sequence | median seed-adjusted z-score |
| --- | --- |
| CCCUCUACGUGCACAUGUUTT against MC3R | inactive: 0.424 |
| GCCUAUCAAUUGUUCGGGATT against TTF1 | active: 1.76 |
| CAUGAACUCUGGAAACAGUTT against POP4 | inactive: -0.144 |
| CCUUGGAACCUUUGAAAAATT against ANP32B | inactive: 0 |

(listing goes on)

Sequence | median seed-adjusted z-score
UAUCGUCGCGAUUACAGAATT against BCLAF1 | inactive: -0.823
CGAGCAAUACGGUGAGCAATT against PTRF | inactive: -0.0151
CGGAAACUCCUGUCGAUGATT against KIF26B | inactive: -0.153
GCGUGGAUCUCAACAGGAATT against CPA5 | inactive: 0.141
GGGCGGUUGUCUACAGCAATT against GNAI2 | inactive: 0
GCCCAUAGAGGGUUCAGAATT against CCNT1 | inactive: -0.72
GCAUUGCUCUUGCACCAGATT against ZNF337 | inactive: 0.104
GCAUGGAGGUCGUAUCUAUTT against TINAGL1 | inactive: -0.059
GAAUGCCUAUCGGACACUATT against PLSCR4 | inactive: -0.543
GACAGAUAAUGGGAAUUUUTT against RPIA | inactive: 0.0803
CCUUAUUGAGCAUCAAAGATT against ZNF189 | inactive: 0.0743
CAGGUACAGUGAUUGCUCUTT against PCDHGA11 | inactive: 0.0518
GAUCUUUGGUCACAAUACATT against ZNF28 | inactive: 0.814
GCUCAAAUGCUAGUACUAUTT against FOXO1 | inactive: 0.0591
GGUCUUGACUUCCACCAUATT against ZNF222 | inactive: 0.13
GAUUUAUGCUAGCUCUAAATT against CFL2 | inactive: -0.148
GAGCGACUCUUCGACGAGATT against SHOX | inactive: 0.316
GGCACGGUUUUGGUCGAAATT against FREM2 | inactive: 0.143
CCACCAAUGUAGUCUAUCATT against PAPSS2 | inactive: -0.201
CAUGUUGUUUUAUCGGAAATT against USP40 | inactive: 0.00437
